# In article PMC1853097, “The high-resolution NMR structure of the R21A Spc-SH3:P41 complex: Understanding the determinants of binding affinity by comparison with Abl-SH3” (BMC Structural Biology, 2007):
# Like-named read-outs stand apart in the source and are kept apart here.
# Columns and labels:
# [1] = system: R21A mutant of the α-spectrin SH3 domain (R21A Spc-SH3); test: ITC titration of R21A Spc-SH3 with p41; format: binding, chicken; conditions: 25°C; for ΔHb (enthalpy change of binding): global fit of three isotherms; for ΔHb (enthalpy change of binding) / p (number of protons exchanged with the buffer per mole of ligand bound): error = 95% confidence interval
# Method: (§1) The binding between the p41 decapeptide and the R21A Spc-SH3 mutant domain was studied by a combination of isothermal titration calorimetry (ITC) and differential scanning calorimetry (DSC) experiments. ITC experiments were performed at 25°C at both pH 3.0 and 7.0, using several buffers at a concentration of 20 mM. Similar ITC experiments were made with the WT Spc-SH3 domain for comparison. […] The contribution of protonation/deprotonation processes to the binding enthalpy change, was estimated using three buffers differing in their ionization heats (Figure 1B).
# (§2) ITC experiments were performed at 25°C in a high-precision MCS titration calorimeter (Microcal Inc., Northampton, MA). Prior to the experiments the protein was extensively dialyzed at 4°C against the appropriate buffer. The solutions of p41 peptide were prepared by dissolving the lyophilized material directly into the buffer and subsequently adjusting the pH of the solution. All buffers and solutions were filtered and degassed and equilibrated to the working temperature prior to each experiment. Typically, a ≈ 0.1 mM protein solution in the calorimeter's cell was titrated with the ligand solution (at a concentration about 4 – 5 mM). Due to the relatively low binding affinities, titrations were made by using a profile of injection volumes of the ligand solution in order to define better the titration curve. An independent identical titration with buffer in the cell was made with the same ligand solution to determine the corresponding heats of dilution. The dilution thermogram was subtracted from that obtained for the titration of the protein. The area under each peaks of the net thermogram was integrated to determine the heat produced by the binding between the ligand and the protein after each injection. To account for the contribution of protonation/deprotonation processes to the binding enthalpy, the experiments were repeated at each pH using three buffers differing in their ionization heats. The binding constant, Kb, and the enthalpy change of binding, ΔHb, were determined by global fitting of the three binding isotherms measured in different buffers, using a model of binding to a single set of identical sites, according to the equation:
# (§3) ΔQ/Δ[L]T=VC⋅(ΔHb+p⋅ΔHi)/2[1−1+Kb[L]T−nKb[M]T/(1+Kb[L]T−nKb[M]T)^2−4nKb2[M]T[L]T] MathType@MTEF@5@5@+=feaafiart1ev1aaatCvAUfKttLearuWrP9MDH5MBPbIqV92AaeXatLxBI9gBaebbnrfifHhDYfgasaacH8akY=wiFfYdH8Gipec8Eeeu0xXdbba9frFj0=OqFfea0dXdd9vqai=hGuQ8kuc9pgc9s8qqaq=dirpe0xb9q8qiLsFr0=vr0=vr0dc8meaabaqaciaacaGaaeqabaqabeGadaaakeaadaWcaaqaaiabfs5aejabdgfarbqaaiabfs5aejabcUfaBjabdYeamjabc2faDnaaBaaaleaacqWGubavaeqaaaaakiabg2da9maalaaabaGaemOvay1aaSbaaSqaaiabdoeadbqabaGccqGHflY1cqGGOaakcqqHuoarcqWGibasdaWgaaWcbaGaemOyaigabeaakiabgUcaRiabdchaWjabgwSixlabfs5aejabdIeainaaBaaaleaacqWGPbqAaeqaaOGaeiykaKcabaGaeGOmaidaamaadmaabaGaeGymaeJaeyOeI0YaaSaaaeaacqaIXaqmcqGHRaWkcqWGlbWsdaWgaaWcbaGaemOyaigabeaakiabcUfaBjabdYeamjabc2faDnaaBaaaleaacqWGubavaeqaaOGaeyOeI0IaemOBa4Maem4saS0aaSbaaSqaaiabdkgaIbqabaGccqGGBbWwcqWGnbqtcqGGDbqxdaWgaaWcbaGaemivaqfabeaaaOqaamaakaaabaGaeiikaGIaeGymaeJaey4kaSIaem4saS0aaSbaaSqaaiabdkgaIbqabaGccqGGBbWwcqWGmbatcqGGDbqxdaWgaaWcbaGaemivaqfabeaakiabgkHiTiabd6gaUjabdUealnaaBaaaleaacqWGIbGyaeqaaOGaei4waSLaemyta0Kaeiyxa01aaSbaaSqaaiabdsfaubqabaGccqGGPaqkdaahaaWcbeqaaiabikdaYaaakiabgkHiTiabisda0iabd6gaUjabdUealnaaDaaaleaacqWGIbGyaeaacqaIYaGmaaGccqGGBbWwcqWGnbqtcqGGDbqxdaWgaaWcbaGaemivaqfabeaakiabcUfaBjabdYeamjabc2faDnaaBaaaleaacqWGubavaeqaaaqabaaaaaGccaGLBbGaayzxaaaaaa@898D@ […]
# [2] = system: WT α-spectrin SH3 domain (WT Spc-SH3); test: ITC titration of WT Spc-SH3 with p41; format: binding, chicken; conditions: 25°C; for ΔHb (enthalpy change of binding): global fit of three isotherms; for ΔHb (enthalpy change of binding) / p (number of protons exchanged with the buffer per mole of ligand bound): error = 95% confidence interval
# Method: as §1, §2, §3
# [3] = system: SH3 domain of the Abl tyrosine kinase (Abl-SH3); conditions: ITC, 25°C, cited from earlier work
# Source text: The affinities are much lower than that of the Abl-SH3 domain for p41 under similar conditions, which is in the range of 2 × 10^5 – 4 × 10^5 M^-1 [16]. In all cases the binding is driven by a large and favourable enthalpy change, partially compensated by an unfavourable entropy change. A similar thermodynamic signature is usually observed for the binding of proline-rich peptides to other SH3 domains. The very small variation of the binding enthalpies with the ionization enthalpy of the buffers ... || We have performed a global analysis of the ΔCpapp MathType@MTEF@5@5@+=feaafiart1ev1aaatCvAUfKttLearuWrP9MDH5MBPbIqV92AaeXatLxBI9gBaebbnrfifHhDYfgasaacH8akY=wiFfYdH8Gipec8Eeeu0xXdbba9frFj0=OqFfea0dXdd9vqai=hGuQ8kuc9pgc9s8qqaq=dirpe0xb9q8qiLsFr0=vr0=vr0dc8meaabaqaciaacaGaaeqabaqabeGadaaakeaacqqHuoarcqWGdbWqdaqhaaWcbaGaemiCaahabaGaemyyaeMaemiCaaNaemiCaahaaaaa@34D4@ curves using a simple model in which the protein/ligand binding and protein unfolding equilibria are coupled (Figure 2). This analysis is, with minor modifications, similar to that used previously for the analysis of the interaction be ...
# [4] = pH 3.0, three buffers differing in ionization heat
# [5] = pH 7.0, three buffers differing in ionization heat
sequence,measurement,setting,value
"APSYSPPPPP [p41, synthetic decapeptide …, both acetylated and methylated in its termini]",net Gibbs energy gain of binding upon R21A mutation,"[1]; at both pH values (3.0 and 7.0), R21A vs WT Spc-SH3",about -3 kJ mol^-1
same,TΔSb,[1]; pH 3.0,-6.45 kcal/mol
same,ΔGb,[1]; pH 3.0,-5.81 kcal/mol
same,ΔHb (enthalpy change of binding),"[1]; pH 3.0, 20 mM buffers",-12.3 ± 0.406 kcal/mol
same,p (number of protons exchanged with the buffer per mole of ligand bound),[1]; [4],-0.29 ± 0.08
same,TΔSb,[1]; pH 7.0,-8.22 kcal/mol
same,ΔGb,[1]; pH 7.0,-5.81 kcal/mol
same,ΔHb (enthalpy change of binding),"[1]; pH 7.0, 20 mM buffers",-14 ± 0.598 kcal/mol
same,p (number of protons exchanged with the buffer per mole of ligand bound),[1]; [5],0.06 ± 0.05
same,TΔSb,[2]; pH 3.0,-5.35 kcal/mol
same,ΔGb,[2]; pH 3.0,-5.14 kcal/mol
same,ΔHb (enthalpy change of binding),"[2]; pH 3.0, 20 mM buffers",-10.5 ± 0.789 kcal/mol
same,p (number of protons exchanged with the buffer per mole of ligand bound),[2]; [4],-0.07 ± 0.11
same,TΔSb,[2]; pH 7.0,-5.78 kcal/mol
same,ΔGb,[2]; pH 7.0,-5.07 kcal/mol
same,ΔHb (enthalpy change of binding),"[2]; pH 7.0, 20 mM buffers",-10.9 ± 1.51 kcal/mol
same,p (number of protons exchanged with the buffer per mole of ligand bound),[2]; [5],0.01 ± 0.12
same,TΔSb,[3]; pH 3.0,-15 kcal/mol
same,ΔGb,[3]; pH 3.0,-7.27 kcal/mol
same,ΔHb (enthalpy change of binding),[3]; pH 3.0,-22.3 kcal/mol
same,TΔSb,[3]; pH 7.0,-14.4 kcal/mol
same,p (number of protons exchanged with the buffer per mole of ligand bound),[3]; pH 7.0,0.1
same,ΔGb,[3]; pH 7.0,-7.5 kcal/mol
same,ΔHb (enthalpy change of binding),[3]; pH 7.0,-21.9 kcal/mol
